The other results are listed elsewhere or left out. Residues, ends and D or L forms follow the SMILES beside them. *: point of attachment. Cbz = O=C(OCc1ccccc1)*
Legend:
Assay in all cases: log2 fold change, soluble protein after heating vs DMSO (PISA); higher = thermal stabilisation; K562 cells, 10 uM, 30 min; active = over 0.2 and 3.5 SD of the protein, either way, in both replicates (recomputed)
[1] = compound: C#Cc1cccc(Nc2ncnc3cc(OCCOC)c(OCCOC)cc23)c1 [erlotinib]
Procedure, shortened: (§1)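 Thermal stability values are relative to control samples and come from duplicates. They are expressed as log2 fold changes. For measurement, K562 cells (2×10^6 cells/mL) received 10 μM compound for 30 min, and aliquots were heated for 3 min over 48°C-58°C, pooled, and extracted at 4°C in PBS with 0.5% NP-40. Soluble protein, the supernatant after 21,000xg for 90 min, was quantified by TMTpro 16plex LC-MS/MS with equalised channel sums.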

Chains of the proteins cited; added tags and fusions are not shown. Lines headed by an entry give the natural chain unless they say otherwise; changes in a name come on top.
UniProt P49593: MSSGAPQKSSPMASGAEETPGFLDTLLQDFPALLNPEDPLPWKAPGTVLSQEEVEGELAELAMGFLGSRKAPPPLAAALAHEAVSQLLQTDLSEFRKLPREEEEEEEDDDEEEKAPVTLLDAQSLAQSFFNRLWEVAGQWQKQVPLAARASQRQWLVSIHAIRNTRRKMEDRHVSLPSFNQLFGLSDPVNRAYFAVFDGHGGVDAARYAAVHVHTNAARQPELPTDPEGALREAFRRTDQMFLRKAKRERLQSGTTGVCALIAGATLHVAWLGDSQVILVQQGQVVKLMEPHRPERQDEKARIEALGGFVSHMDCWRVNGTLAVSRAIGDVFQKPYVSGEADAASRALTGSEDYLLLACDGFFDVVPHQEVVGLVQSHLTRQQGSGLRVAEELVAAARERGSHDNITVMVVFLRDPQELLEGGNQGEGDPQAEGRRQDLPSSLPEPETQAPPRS
UniProt P14314: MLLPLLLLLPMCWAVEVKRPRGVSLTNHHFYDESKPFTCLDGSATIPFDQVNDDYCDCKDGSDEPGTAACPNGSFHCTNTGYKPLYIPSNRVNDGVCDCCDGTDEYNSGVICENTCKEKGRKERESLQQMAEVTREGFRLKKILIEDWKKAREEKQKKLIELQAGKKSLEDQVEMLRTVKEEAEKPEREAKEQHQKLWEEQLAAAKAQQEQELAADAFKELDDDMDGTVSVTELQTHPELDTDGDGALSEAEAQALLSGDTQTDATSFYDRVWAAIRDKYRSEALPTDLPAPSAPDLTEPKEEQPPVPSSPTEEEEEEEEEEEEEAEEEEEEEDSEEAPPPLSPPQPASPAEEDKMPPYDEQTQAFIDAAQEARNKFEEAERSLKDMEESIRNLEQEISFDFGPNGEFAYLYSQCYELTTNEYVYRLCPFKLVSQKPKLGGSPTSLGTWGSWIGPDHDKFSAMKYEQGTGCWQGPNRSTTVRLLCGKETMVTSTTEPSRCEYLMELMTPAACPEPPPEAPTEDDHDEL
UniProt Q9UMS4: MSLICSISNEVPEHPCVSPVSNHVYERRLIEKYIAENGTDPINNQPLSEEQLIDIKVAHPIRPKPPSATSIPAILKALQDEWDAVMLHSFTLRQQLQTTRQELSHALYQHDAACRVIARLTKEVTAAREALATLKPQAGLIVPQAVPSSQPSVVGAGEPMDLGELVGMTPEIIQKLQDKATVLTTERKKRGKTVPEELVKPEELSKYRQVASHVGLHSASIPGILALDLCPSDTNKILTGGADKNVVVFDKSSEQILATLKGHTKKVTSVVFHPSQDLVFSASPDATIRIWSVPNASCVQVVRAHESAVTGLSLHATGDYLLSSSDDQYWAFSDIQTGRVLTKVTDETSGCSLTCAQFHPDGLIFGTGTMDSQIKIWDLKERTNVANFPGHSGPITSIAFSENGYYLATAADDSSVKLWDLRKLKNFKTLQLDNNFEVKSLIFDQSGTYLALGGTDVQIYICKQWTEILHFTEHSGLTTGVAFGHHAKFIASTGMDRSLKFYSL
UniProt Q5JSZ5: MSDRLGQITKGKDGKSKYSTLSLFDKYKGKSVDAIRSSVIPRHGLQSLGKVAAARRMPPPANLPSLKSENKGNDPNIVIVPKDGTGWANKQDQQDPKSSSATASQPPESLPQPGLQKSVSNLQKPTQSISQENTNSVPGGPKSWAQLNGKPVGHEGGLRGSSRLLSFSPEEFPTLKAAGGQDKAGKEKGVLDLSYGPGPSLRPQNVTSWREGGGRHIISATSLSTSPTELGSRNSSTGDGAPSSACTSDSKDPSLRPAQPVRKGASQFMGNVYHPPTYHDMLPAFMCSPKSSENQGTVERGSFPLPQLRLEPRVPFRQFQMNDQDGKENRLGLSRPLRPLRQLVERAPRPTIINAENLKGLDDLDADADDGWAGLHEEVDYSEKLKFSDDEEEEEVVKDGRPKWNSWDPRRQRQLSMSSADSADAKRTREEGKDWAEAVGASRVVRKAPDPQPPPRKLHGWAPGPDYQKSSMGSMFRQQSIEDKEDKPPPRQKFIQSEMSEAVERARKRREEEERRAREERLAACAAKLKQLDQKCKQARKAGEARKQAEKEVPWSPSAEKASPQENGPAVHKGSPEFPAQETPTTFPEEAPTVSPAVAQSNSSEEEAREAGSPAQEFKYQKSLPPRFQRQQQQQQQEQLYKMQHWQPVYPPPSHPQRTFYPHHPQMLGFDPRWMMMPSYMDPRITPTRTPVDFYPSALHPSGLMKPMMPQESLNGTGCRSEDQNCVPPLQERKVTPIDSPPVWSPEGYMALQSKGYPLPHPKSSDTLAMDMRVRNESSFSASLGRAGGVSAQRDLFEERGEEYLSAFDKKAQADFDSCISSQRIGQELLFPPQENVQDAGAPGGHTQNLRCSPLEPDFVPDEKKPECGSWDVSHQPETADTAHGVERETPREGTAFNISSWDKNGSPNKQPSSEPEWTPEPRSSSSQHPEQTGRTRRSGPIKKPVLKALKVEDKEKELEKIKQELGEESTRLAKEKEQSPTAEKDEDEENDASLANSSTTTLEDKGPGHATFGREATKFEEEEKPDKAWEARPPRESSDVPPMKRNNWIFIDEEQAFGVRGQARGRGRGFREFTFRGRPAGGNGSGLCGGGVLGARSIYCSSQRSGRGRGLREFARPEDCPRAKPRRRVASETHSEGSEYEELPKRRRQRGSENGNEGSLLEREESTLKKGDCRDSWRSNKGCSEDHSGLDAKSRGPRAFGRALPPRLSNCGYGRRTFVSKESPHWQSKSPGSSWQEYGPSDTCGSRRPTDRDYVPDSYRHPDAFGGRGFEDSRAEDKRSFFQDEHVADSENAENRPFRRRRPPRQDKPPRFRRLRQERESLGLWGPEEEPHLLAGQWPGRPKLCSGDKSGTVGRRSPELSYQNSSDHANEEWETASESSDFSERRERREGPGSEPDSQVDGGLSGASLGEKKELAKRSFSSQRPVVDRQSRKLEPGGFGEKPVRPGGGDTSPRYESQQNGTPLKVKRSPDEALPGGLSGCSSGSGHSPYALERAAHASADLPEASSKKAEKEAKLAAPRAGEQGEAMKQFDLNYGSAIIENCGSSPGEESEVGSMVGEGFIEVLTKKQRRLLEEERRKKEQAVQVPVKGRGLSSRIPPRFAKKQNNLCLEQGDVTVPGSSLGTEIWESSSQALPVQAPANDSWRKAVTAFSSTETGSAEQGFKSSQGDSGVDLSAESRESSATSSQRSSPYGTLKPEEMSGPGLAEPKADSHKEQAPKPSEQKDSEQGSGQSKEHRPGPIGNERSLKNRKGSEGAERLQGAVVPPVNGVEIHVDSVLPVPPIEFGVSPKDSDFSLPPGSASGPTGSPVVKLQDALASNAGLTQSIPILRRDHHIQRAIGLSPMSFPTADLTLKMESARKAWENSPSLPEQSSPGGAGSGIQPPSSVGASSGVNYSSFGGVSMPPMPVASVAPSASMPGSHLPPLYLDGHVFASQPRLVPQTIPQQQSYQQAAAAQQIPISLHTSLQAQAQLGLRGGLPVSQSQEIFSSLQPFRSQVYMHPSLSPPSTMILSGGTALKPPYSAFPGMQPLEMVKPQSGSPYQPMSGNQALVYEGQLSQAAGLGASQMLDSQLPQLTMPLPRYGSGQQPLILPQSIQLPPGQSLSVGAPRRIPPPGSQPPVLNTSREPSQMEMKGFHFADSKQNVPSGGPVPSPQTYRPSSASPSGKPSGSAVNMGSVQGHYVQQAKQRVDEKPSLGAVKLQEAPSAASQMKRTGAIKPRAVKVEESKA
UniProt Q9ULR3: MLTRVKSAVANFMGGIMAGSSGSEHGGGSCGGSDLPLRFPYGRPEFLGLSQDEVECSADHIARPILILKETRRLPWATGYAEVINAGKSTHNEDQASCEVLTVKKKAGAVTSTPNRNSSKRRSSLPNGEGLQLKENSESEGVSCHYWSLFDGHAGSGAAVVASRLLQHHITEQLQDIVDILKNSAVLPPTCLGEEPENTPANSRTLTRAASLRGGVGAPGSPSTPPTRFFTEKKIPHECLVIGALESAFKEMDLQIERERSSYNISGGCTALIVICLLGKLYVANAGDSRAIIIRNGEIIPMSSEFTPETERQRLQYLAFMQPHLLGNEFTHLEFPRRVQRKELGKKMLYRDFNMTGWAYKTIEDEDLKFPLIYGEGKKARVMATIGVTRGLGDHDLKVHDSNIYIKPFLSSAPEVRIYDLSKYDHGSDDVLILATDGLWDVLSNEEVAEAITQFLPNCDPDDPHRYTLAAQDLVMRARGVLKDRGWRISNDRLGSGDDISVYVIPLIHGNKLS
UniProt P48454, whole entry, looked up: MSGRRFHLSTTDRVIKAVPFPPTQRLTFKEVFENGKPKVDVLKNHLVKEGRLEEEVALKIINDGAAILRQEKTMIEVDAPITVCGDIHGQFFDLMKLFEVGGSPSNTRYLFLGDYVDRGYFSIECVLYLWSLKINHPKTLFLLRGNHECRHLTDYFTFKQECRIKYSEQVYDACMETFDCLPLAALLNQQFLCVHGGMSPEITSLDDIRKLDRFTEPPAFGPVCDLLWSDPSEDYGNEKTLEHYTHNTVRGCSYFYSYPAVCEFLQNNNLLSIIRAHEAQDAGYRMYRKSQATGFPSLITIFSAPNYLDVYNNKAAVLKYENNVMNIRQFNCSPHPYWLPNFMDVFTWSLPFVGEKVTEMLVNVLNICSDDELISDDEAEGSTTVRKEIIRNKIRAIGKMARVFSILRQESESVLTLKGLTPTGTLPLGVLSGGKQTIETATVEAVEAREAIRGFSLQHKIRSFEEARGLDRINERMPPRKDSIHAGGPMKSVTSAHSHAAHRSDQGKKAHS
UniProt Q6IN85: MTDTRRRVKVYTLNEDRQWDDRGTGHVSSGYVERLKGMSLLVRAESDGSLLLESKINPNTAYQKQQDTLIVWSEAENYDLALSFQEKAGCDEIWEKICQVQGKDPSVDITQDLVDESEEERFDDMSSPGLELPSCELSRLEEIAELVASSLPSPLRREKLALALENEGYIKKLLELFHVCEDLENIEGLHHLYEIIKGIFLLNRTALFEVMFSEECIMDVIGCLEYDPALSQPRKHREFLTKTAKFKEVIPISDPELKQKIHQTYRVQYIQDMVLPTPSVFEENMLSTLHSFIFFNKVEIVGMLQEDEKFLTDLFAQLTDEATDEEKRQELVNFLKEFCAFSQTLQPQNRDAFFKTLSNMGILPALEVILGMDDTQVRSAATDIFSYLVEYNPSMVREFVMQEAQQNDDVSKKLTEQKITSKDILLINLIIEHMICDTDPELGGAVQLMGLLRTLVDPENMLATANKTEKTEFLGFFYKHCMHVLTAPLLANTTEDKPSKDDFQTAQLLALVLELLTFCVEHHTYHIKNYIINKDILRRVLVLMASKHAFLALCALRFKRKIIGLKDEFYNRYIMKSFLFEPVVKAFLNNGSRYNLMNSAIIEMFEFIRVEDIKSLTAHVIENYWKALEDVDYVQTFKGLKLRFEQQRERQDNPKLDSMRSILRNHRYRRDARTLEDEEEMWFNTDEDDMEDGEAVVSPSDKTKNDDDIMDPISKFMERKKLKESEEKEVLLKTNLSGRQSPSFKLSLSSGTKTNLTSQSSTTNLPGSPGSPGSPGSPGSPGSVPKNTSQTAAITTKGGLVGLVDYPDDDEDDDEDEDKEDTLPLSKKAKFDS
UniProt Q66LE6: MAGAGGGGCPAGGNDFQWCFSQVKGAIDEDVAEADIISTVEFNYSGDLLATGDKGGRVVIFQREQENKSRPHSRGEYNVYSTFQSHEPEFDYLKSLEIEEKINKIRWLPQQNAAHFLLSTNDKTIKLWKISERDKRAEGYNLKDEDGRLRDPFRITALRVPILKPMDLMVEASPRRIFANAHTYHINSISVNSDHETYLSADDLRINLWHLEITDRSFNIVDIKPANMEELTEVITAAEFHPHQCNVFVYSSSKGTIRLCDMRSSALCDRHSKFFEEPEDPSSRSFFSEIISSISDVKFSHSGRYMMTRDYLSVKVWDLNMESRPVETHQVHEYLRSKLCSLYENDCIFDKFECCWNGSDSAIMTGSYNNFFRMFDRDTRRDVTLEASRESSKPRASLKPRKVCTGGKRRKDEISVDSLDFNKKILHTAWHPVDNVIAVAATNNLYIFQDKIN
UniProt P67775, whole entry, looked up: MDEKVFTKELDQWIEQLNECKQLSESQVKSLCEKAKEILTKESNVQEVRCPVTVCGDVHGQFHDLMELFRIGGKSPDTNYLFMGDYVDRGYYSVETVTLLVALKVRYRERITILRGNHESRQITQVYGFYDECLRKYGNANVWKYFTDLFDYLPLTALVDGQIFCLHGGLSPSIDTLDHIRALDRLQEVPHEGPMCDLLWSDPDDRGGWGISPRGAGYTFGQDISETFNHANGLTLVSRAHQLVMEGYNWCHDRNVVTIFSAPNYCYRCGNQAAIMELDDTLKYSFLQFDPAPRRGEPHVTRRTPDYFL

[2] = compound: C/C(=N\NC(=O)C1=CC(=CC=C1)S(=O)(=O)N2CCOCC2)/C3=C(C=CC(=C3)Cl)O
Procedure, shortened: as §1

[3] = compound: C1=CC(=C(C=C1Cl)C2=NC3=NC=CN=C3C(=N2)NC4=CC=NC=C4)F
Procedure, shortened: as §1

[4] = compound: C1=CC(=CC=C1C2=NC3=C(N2)C=C(C=C3)C(=O)N)OC4=CC=C(C=C4)Cl
Procedure, shortened: as §1

[5] = compound: C1=CC2=C(C=CC(=C2)/C=C\3/C(=O)NC(=NCC4=CC=CS4)S3)N=C1
Procedure, shortened: as §1

[6] = compound: C1=CC2=NC=CN=C2C=C1/C=C/3\C(=O)NC(=O)S3
Procedure, shortened: as §1

[7] = compound: C1=CC=C(C=C1)C2=NC(=C(N2)C3=CC=NC=C3)C4=CC(=C(C=C4)Cl)O
Procedure, shortened: as §1

[8] = compound: C1=CC=C2C(=C1)C3=NNC4=CC=CC(=C43)C2=O
Procedure, shortened: as §1

[9] = compound: C1CCN(C1)C(=O)NC2=CC=CC(=C2)NC3=NC=C(C(=N3)NCCC4=CN=CN4)Br
Procedure, shortened: as §1

[10] = compound: C1CN(CCC1(CC2=CC=C(C=C2)Cl)N)C3=NC=NC4=C3C=CN4
Procedure, shortened: as §1

[11] = compound: C1COCCN1CCN2C3=CC=CC=C3N=C2NC(=O)C4=CC(=CC=C4)[N+](=O)[O-] [IRAK-1-4 Inhibitor I]
Procedure, shortened: as §1

[12] = compound: C=CC(=O)N1CCC[C@@H](n2nc(-c3ccc(Oc4ccccc4)cc3)c3c(N)ncnc32)C1 [ibrutinib]
Procedure, shortened: as §1

[13] = compound: CC(=O)c1cnc2ccc(-c3cc(Cl)c(O)c(Cl)c3)nc2c1N[C@H]1CC[C@H](CN(C)C)CC1
Procedure, shortened: as §1

[14] = compound: CC(C)(C)Cn1c(N)nc2ccc(-c3[nH]c(C(C)(C)C)nc3-c3ccc(F)cc3)nc21 [ralimetinib]
Procedure, shortened: as §1

[15] = compound: CC(C)(O)CC(=O)NCCn1ccc2ncnc(Nc3ccc(Oc4cccc(C(F)(F)F)c4)c(Cl)c3)c21
Procedure, shortened: as §1

[16] = compound: CC(C)C1=C2N=C(C=C(N2N=C1)NCC3=CC=CC=C3)NCCCCCCN
Procedure, shortened: as §1

[17] = compound: CC(C)C[C@@H](C=O)NC(=O)[C@H](CC(C)C)NC(=O)[C@H](CC(C)C)NC(=O)OCc1ccccc1
Procedure, shortened: as §1

[18] = compound: CC(C)N(C[C@H]1O[C@@H](n2cnc3c(N)ncnc32)[C@H](O)[C@@H]1O)[C@H]1C[C@@H](CCc2nc3cc(C(C)(C)C)ccc3[nH]2)C1 [pinometostat]
Procedure, shortened: as §1

[19] = compound: CC1=C(C(CC(=O)N1)C2=CC=C(C=C2)C(F)(F)F)C(=O)NC3=C(C=C4C(=C3)C=NN4)F
Procedure, shortened: as §1

[20] = compound: CC1=C(C2=C(C=C1)C(=O)C3=CC=CC=C3N2CCCN)C
Procedure, shortened: as §1

Measured: log2 fold change

PRKCSH (UniProt K7ELL7)
inactive: [1] -0.033 | [2] -0.013 | [3] -0.063 | [4] 0.212 | [5] 0.007 | [6] 0.058 | [7] -0.114 | [8] 0.003 | [9] -0.175 | [10] -0.064 | [11] 0.038 | [12] -0.02 | [13] -0.093 | [14] 0 | [15] 0.001 | [16] -0.04 | [17] -0.011 | [18] -0.021 | [19] 0.14 | [20] 0.011

PPM1F (UniProt P49593)
inactive: [1] -0.012 | [2] 0.054 | [3] 0.073 | [4] 0.077 | [5] 0 | [6] 0.011 | [7] -0.026 | [8] 0.032 | [9] 0.016 | [10] -0.118 | [11] 0.008 | [12] -0.019 | [13] -0.002 | [14] -0.001 | [15] -0.039 | [16] -0.106 | [17] 0.034 | [18] -0.022 | [19] -0.035 | [20] -0.042

PRKCSH isoform 2 (UniProt P14314)
inactive: [1] 0.007 | [2] -0.035 | [3] 0.105 | [4] -0.08 | [5] -0.131 | [6] 0.088 | [7] 0.019 | [8] -0.019 | [9] -0.025 | [10] -0.186 | [11] -0.03 | [12] 0.017 | [13] -0.056 | [14] 0.097 | [15] -0.05 | [16] 0.152 | [17] -0.021 | [18] 0.072 | [19] 0.064 | [20] -0.145

PRSS21 (UniProt Q9Y6M0)
inactive: [1] -0.031 | [2] -0.047 | [3] 0.002 | [4] -0.072 | [5] 0.038 | [6] -0.006 | [7] 0.006 | [8] 0.054 | [9] -0.009 | [10] -0.002 | [11] -0.059 | [12] 0.026 | [13] -0.018 | [14] 0.013 | [15] -0.015 | [16] -0.084 | [17] -0.028 | [18] 0.044 | [19] -0.036 | [20] 0.004

PRPF19 (UniProt Q9UMS4)
inactive: [1] -0.024 | [2] -0.012 | [3] 0.014 | [4] -0.011 | [5] -0.019 | [6] 0.013 | [7] -0.013 | [8] -0.026 | [9] 0.001 | [10] 0.019 | [11] 0.049 | [12] 0.006 | [13] 0.127 | [14] -0.027 | [15] 0.035 | [16] 0.078 | [17] -0.044 | [18] -0.004 | [19] -0.003 | [20] 0.103

PPP6R3 isoform 5 (UniProt Q5H9R7)
inactive: [1] -0.004 | [2] -0.002 | [3] 0.048 | [4] -0.012 | [5] -0.001 | [6] 0.059 | [7] 0.003 | [8] 0.029 | [9] -0.027 | [10] 0.013 | [11] 0.009 | [12] 0.003 | [13] 0.037 | [14] -0.046 | [15] -0.008 | [16] 0.022 | [17] -0.016 | [18] -0.029 | [19] -0.01 | [20] -0.018

PPP4R2 (UniProt Q9NY27)
inactive: [1] 0.072 | [2] -0.01 | [3] 0.075 | [4] -0.02 | [5] 0.031 | [6] 0.041 | [7] -0.022 | [8] 0.011 | [9] 0.023 | [10] 0.033 | [11] 0.037 | [12] -0.025 | [13] -0.003 | [14] 0.048 | [15] 0.066 | [16] -0.015 | [17] 0.004 | [18] -0.003 | [19] 0.014 | [20] -0.082

PRRC2B (UniProt Q5JSZ5)
inactive: [1] 0.078 | [2] -0.057 | [3] 0.014 | [4] -0.042 | [5] 0.118 | [6] -0.033 | [7] -0.052 | [8] 0.094 | [9] -0.004 | [10] -0.007 | [11] 0.017 | [12] -0.037 | [13] -0.063 | [14] 0.036 | [15] 0.035 | [16] -0.037 | [17] 0.066 | [18] -0.037 | [19] -0.038 | [20] 0.062

PREB (UniProt Q9HCU5)
inactive: [1] 0.082 | [2] -0.021 | [3] 0.016 | [4] 0.028 | [5] -0.007 | [6] 0.043 | [7] 0.011 | [8] -0.042 | [9] 0.001 | [10] 0.04 | [11] 0.014 | [12] 0.031 | [13] 0.006 | [14] -0.004 | [15] 0.005 | [16] -0.021 | [17] -0.023 | [18] 0.001 | [19] -0.023 | [20] 0.029

PPM1H (UniProt Q9ULR3)
inactive: [1] 0.006 | [2] 0.002 | [3] 0.079 | [4] 0.024 | [5] 0.055 | [6] 0.049 | [7] 0.02 | [8] -0.013 | [9] -0.011 | [10] 0.056 | [11] -0.001 | [12] -0.013 | [13] -0.012 | [14] -0.029 | [15] -0.072 | [16] 0.017 | [17] -0.023 | [18] -0.078 | [19] 0.016 | [20] 0.042

PPP3CC isoform 3 (UniProt P48454)
inactive: [1] -0.02 | [2] 0.007 | [3] 0.072 | [4] -0.036 | [5] -0.018 | [6] -0.015 | [7] -0.014 | [8] 0.099 | [9] 0.026 | [10] 0.004 | [11] 0.03 | [12] 0.013 | [13] -0.043 | [14] -0.081 | [15] -0.101 | [16] 0.021 | [17] -0.004 | [18] -0.098 | [19] -0.033 | [20] 0.024

PPP1R12A (UniProt O14974)
active: [10] -0.485 | [13] -0.666 | [19] -0.514
inactive: [1] 0.004 | [2] 0.044 | [3] 0.023 | [4] 0.023 | [5] -0.188 | [6] 0 | [7] 0.035 | [8] -0.067 | [9] -0.074 | [11] -0.013 | [12] -0.022 | [14] 0 | [15] 0 | [16] -0.119 | [17] -0.014 | [18] -0.003 | [20] -0.01

PPP4R3A (UniProt Q6IN85)
inactive: [1] -0.015 | [2] 0.032 | [3] -0.025 | [4] 0.028 | [5] 0.046 | [6] 0.043 | [7] -0.073 | [8] 0.004 | [9] 0.014 | [10] 0.021 | [11] 0.016 | [12] -0.042 | [13] -0.023 | [14] -0.129 | [15] 0.075 | [16] -0.032 | [17] 0.025 | [18] -0.017 | [19] -0.033 | [20] -0.066

2 successive records out of the list so far, for reference:
PREB (UniProt Q9HCU5)
inactive: [1] 0.082 | [2] -0.021 | [3] 0.016 | [4] 0.028 | [5] -0.007 | [6] 0.043 | [7] 0.011 | [8] -0.042 | [9] 0.001 | [10] 0.04 | [11] 0.014 | [12] 0.031 | [13] 0.006 | [14] -0.004 | [15] 0.005 | [16] -0.021 | [17] -0.023 | [18] 0.001 | [19] -0.023 | [20] 0.029

PPM1H (UniProt Q9ULR3)
inactive: [1] 0.006 | [2] 0.002 | [3] 0.079 | [4] 0.024 | [5] 0.055 | [6] 0.049 | [7] 0.02 | [8] -0.013 | [9] -0.011 | [10] 0.056 | [11] -0.001 | [12] -0.013 | [13] -0.012 | [14] -0.029 | [15] -0.072 | [16] 0.017 | [17] -0.023 | [18] -0.078 | [19] 0.016 | [20] 0.042

(list continues)

PPP2R2D (UniProt Q66LE6)
inactive: [1] -0.013 | [2] -0.02 | [3] 0.137 | [4] -0.065 | [5] 0.171 | [6] 0.111 | [7] 0.027 | [8] -0.008 | [9] 0.059 | [10] -0.039 | [11] -0.022 | [12] 0.017 | [13] -0.202 | [14] -0.051 | [15] -0.008 | [16] 0.04 | [17] 0.026 | [18] -0.005 | [19] 0.029 | [20] -0.04

PQBP1 (UniProt O60828)
inactive: [1] 0.026 | [2] 0.023 | [3] 0.011 | [4] -0.021 | [5] -0.168 | [6] 0.033 | [7] -0.072 | [8] -0.024 | [9] -0.006 | [10] -0.012 | [11] 0.047 | [12] 0.032 | [13] -0.021 | [14] -0.03 | [15] 0.031 | [16] 0.118 | [17] 0.027 | [18] -0.031 | [19] 0.002 | [20] 0.015

PPP2CA (UniProt P67775)
inactive: [1] -0.119 | [2] 0.087 | [3] 0.068 | [4] 0.099 | [5] 0.018 | [6] 0.006 | [7] -0.001 | [8] 0.01 | [9] -0.03 | [10] 0.053 | [11] 0.08 | [12] -0.011 | [13] -0.001 | [14] -0.045 | [15] 0.057 | [16] 0.017 | [17] -0.044 | [18] -0.089 | [19] 0.01 | [20] -0.006

— the supplement of paper PMC10849652
